Hit rate of the full screen: of about 350,000 compounds, about 220 (0.063%) were called active. The shares of active, inactive and inconclusive entries below differ from those in the screen. Calls come from the whole dose curve; as a rule, active = well fitted activation curve with a large enough effect; inconclusive = small, poorly fitted or top-dose-only effect; inactive = no such curve, though single readings can be large or run the other way. Potencies of inconclusive entries are doubtful fits and often do not repeat.
Test: qHTS for Activators of Integrin-Mediated Alleviation for Muscular Dystrophy; note: nearly all actives have a fitted effect of over 60% in size;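 for activation: 100% = response of the positive control SU9516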
Conditions: alpha7betagal myoblasts, beta-gal FDG fluorescence, 48 h; activation: at 38.3 µM (top of the series)
Procedure, shortened: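 Alpha7betagal+/- myoblasts (passage 13) were plated 16-24 hr, then exposed to compounds (1:260 dilution of DMSO stock) for 48 hours at 37C. After MPER lysis, β-galactosidase reporter activity was read as FDG fluorescence (ex 480/em 540) after 30 minutes.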
Potency is the fitted concentration of half-maximal effect.

activation, inactive:
C/C(=N\OC(=O)Nc1ccc(Cl)cc1)c1ccc(F)c(F)c1 -10.5%, COc1cccc(OC)c1NC(=O)CN1CCN(C)CC1 9.76%, COCCN(CCOC)C(=S)Nc1cc(S(=O)(=O)N(C)C)ccc1C 22.5%, CCOc1cccc(-c2c(C(=O)N/N=C/c3ccc(C)s3)nnn2-c2nonc2N)c1 -11.6%, Cc1ccc(CN2CCN(CC(=O)N=Nc3c(O)[nH]c4ccccc34)CC2)cc1 -8.16%, COc1ccc(NC(=O)Nc2ccc3[nH]ccc3c2)cc1 15.6%, CCCN(CC(=O)Nc1ccccc1C)C(=O)c1ccc(-c2ccccc2)cc1 16.8%, Oc1ccc(/C=N/n2cc(-c3ccccc3)[nH]c2=S)cc1 -4.58%, Cn1c(=O)c2[nH]c(CN(Cc3ccccc3)Cc3ccccc3)nc2n(C)c1=O -13.6%, Cc1ccc(-c2ccc(SCC(=O)NCC3CCCO3)nn2)cc1 (centres undefined) 18.2%, COc1ccc(C(=O)O/N=C(\N)c2ccc(Cl)cc2)cc1 1.28%, COc1ccc(Nc2cc3n(c(=O)n2)CCc2cc(OC)c(OC)cc2-3)c(C)c1 1.77%, O=C1c2ccc3c4c(ccc(c24)C(=O)N1c1cccc(O)c1)CC3 21.5%, C=CCn1c(Cc2nc3ccccc3[nH]2)n[nH]c1=S -19.9% [at 7.66 µM], Cc1cc(C(=O)O)ccc1N/C=C1\CCCC(C)C1=O (centres undefined) 7.06%, O=C(CCS(=O)(=O)c1ccccc1)N(CCCN1CCOCC1)c1nc2ccc(F)cc2s1 30%, Nc1nn(S(=O)(=O)c2ccccc2)cc1-c1ccc([N+](=O)[O-])cc1 -42.3%, Cc1cccc(NCc2ccc(Br)cc2)n1 -4.85%, CCN(CC)S(=O)(=O)c1cc(NC(=O)CSc2nnc(N)s2)ccc1C 12%, COc1cc2c(cc1OC)CN(CC(O)c1ccccc1)CC2 (centres undefined) -18.1%, Fc1ccc(/C=N/Nc2nc3ccccc3[nH]2)cc1F -24.3%, O=C(Nc1ccc(Cl)cn1)c1ccccc1-c1ccccc1 -8.37%, COc1ccc(/C=C/C(=O)c2ccccc2O)cc1 -3.84%, S=c1[nH]nc(-c2ccco2)n1-c1cccc2ccccc12 8.1%, CC(C)(C)c1cc(CN(CCO)CCO)cc(C(C)(C)C)c1O -12.4% [at 7.66 µM], COc1ccc(OC)c(NC(=O)CCN2CCCCC2)c1 7.73%, Cn1cc(C(=O)N/N=C/c2ccc3c(c2)OCO3)c2ccccc21 12.7%, COC(=O)[C@H]1Cc2c([nH]c3ccccc23)[C@H](c2ccccc2)N1 -24.5%, Cc1ccc2nc(/C(C#N)=C\c3ccc(N4CCOCC4)o3)[nH]c2c1 -7.18%, COc1cccc(/C=N/n2c(N)nc3ccccc32)c1OC -2.11%, Cc1cc(C)cc(NC(=S)NC(=O)CCN2C(=O)c3ccccc3C2=O)c1 -6.19%, COC(=O)c1c(NC(=O)CN(C)CC(=O)Nc2ccc(C)cc2)sc2c1CCC(C)C2 (centres undefined) -32.9%

activation, inconclusive:
COc1ccc(N2CCN(C(=O)c3cc(C)oc3C)CC2)cc1 16.7% [activator]

Potency, inconclusive:
CC(C)S(=O)(=O)C/C(N)=N/OS(=O)(=O)c1ccc(Cl)cc1 5.01 µM [activator, single point], O=[N+]([O-])c1cc(N=Nc2ccc3ccccc3c2)ccc1O 2.82 µM [activator, partial curve, poor fit], COc1ccccc1/C=C1/SC(=S)N(CCC(=O)Nc2cccnc2)C1=O 10 µM [activator, single point], CC(=O)N=C1SC2CS(=O)(=O)CC2N1c1ccccc1Cl (centres undefined) 5.01 µM [activator, single point], CC(=O)c1ccc(C(=O)NC2CCCN(Cc3ccccc3F)C2)cc1 (centres undefined) 5.01 µM [activator, single point], N#Cc1ccc(-c2cn(-c3ccccc3)c3[n+]2CCCS3)cc1 25.1 µM [activator, partial curve, poor fit], COc1ccc(NC(=O)c2oc3ccc(S(=O)(=O)N4CCOCC4)cc3c2C)cc1 31.6 µM [activator, single point], COc1ccccc1-n1c(SCC(=O)NC2CCS(=O)(=O)C2)nc2ccccc2c1=O (centres undefined) 1.58 µM [activator, partial curve, poor fit], O=C(COc1ccc(Cl)cc1Cl)NCCCNC(=O)c1cnccn1 28.2 µM [activator, single point], CCN(CC)S(=O)(=O)c1cc(NC(=O)CCn2[nH]c(=O)ccc2=O)ccc1C 10 µM [activator, single point], CC(C)(C)NC(=O)NC(=O)CSc1ccc(S(=O)(=O)N2CCCCC2)cn1 0.794 µM [activator, single point], Cn1c(=O)[nH]c(=O)c2c1nc(N1CCOCC1)n2CC(=O)c1ccccc1 14.1 µM [activator, single point], CC1(C(=O)Nc2cccc3ccccc23)CC1(Br)Br (centres undefined) 20 µM [activator, single point], CN(C)CCN(Cc1cccs1)S(=O)(=O)c1csc(C(N)=O)c1 3.16 µM [activator, single point], COc1ccc(NC(=O)c2sccc2SCC#N)cc1 5.01 µM [activator, single point], CCOC(=O)C1=C(C)NC(C)=C(C(=O)OCC)C1C(=O)OCC(=O)N(C)C1CCS(=O)(=O)C1 (centres undefined) 22.4 µM [activator, partial curve, poor fit], CC(C)C[C@H](NC(=O)N1CC(=O)Nc2ccccc21)C(=O)N[C@@H](C(=O)O)c1ccccc1 0.316 µM [activator, full curve, poor fit], Cc1c(NC(=O)Nc2cc(F)c(F)cc2Cl)c(=O)n(-c2ccccc2)n1C 5.01 µM [activator, full curve], NNc1ncnc2c1cnn2-c1ccccc1 5.01 µM [activator, single point], C#CCSc1nc2sc3c(c2c(=O)n1C)CCC3 22.4 µM [activator, single point], CCc1nc2sc(C(C)=O)c(N)c2c2c1CCCC2 4.47 µM [activator, partial curve, poor fit], CCCCCCC(=O)NNC(=O)c1c(O)c2ccccc2n(CCC)c1=O 28.2 µM [activator, single point], COc1cc(OCc2ccccc2)c2c(CCC(=O)O)cc(=O)oc2c1 1 µM [activator, partial curve, poor fit], CN(Cc1ccccn1)C(=O)C1CCC(=O)N(CCc2ccc(Cl)cc2)C1 (centres undefined) 3.16 µM [activator, single point], CC(=O)Nc1ccc(C(=O)Nc2cc(C(F)(F)F)ccc2-n2cnc3ccccc32)cc1 31.6 µM [activator, single point], Cc1ccc(O)c(C(=O)CC(=O)c2ccc(Cl)cc2)c1 5.01 µM [activator, single point], COc1cc(/C=N/NC(=O)C(=O)NCC2CCCO2)ccc1O (centres undefined) 10 µM [activator, partial curve, poor fit], C[N+]12CCCCC1[C@@H](CO)CCC2 (some centres undefined) 5.01 µM [activator, single point], Cc1ccccc1-c1nc(CN2CCSCC2)c(C)o1 14.1 µM [activator, single point], O=C(NC1CCSc2ccccc21)c1ccccc1Cl (centres undefined) 4.47 µM [activator, single point], Cc1ccc(S(=O)(=O)N2CCC(C(=O)NCC(C)(C)N3CCOCC3)CC2)c(C)c1 5.01 µM [activator, single point], CN(C)c1ccc(C(CNC(=O)c2ccccc2F)c2c[nH]c3ccccc23)cc1 (centres undefined) 5.01 µM [activator, single point], O=C(N/N=C/c1ccccn1)C(O)c1ccccc1 (centres undefined) 0.501 µM [activator, partial curve, poor fit], CCOc1ccc(NC(=O)CN2C(=O)NC3(CCCC3)C2=O)cc1S(=O)(=O)N1CCCCC1 3.55 µM [activator, single point], O=C(O)CCCn1cc(NC(=O)COc2ccccc2[N+](=O)[O-])cn1 2.82 µM [activator, single point], c1ccc(-c2nc(CSc3nnc(-c4cccs4)o3)cs2)cc1 4.47 µM [activator, full curve, poor fit], COc1ccccc1C(=O)NC(=O)CSc1nnc(C)s1 3.16 µM [activator, single point], CCC(=O)N1CCc2cc(S(=O)(=O)CCC(=O)NC3CCCCC3)ccc21 2 µM [activator, single point], COc1cc(OC)cc(C(=O)NCC(=O)OCC(=O)NCc2ccco2)c1 0.355 µM [activator, full curve, poor fit], O=C(COC(=O)c1ccco1)Nc1nc2c(F)c(F)c(F)cc2s1 3.16 µM [activator, partial curve, poor fit], Cc1nnsc1-c1c(C(=O)N2CCOCC2)c(C)nn1-c1ccccc1 28.2 µM [activator, single point]
